Assay results from paper PMC6488577.
These are yes or no findings as the source states them, for the method shown. Binding seen in cells or lysates may run through a third protein. Some entries that bind do so weakly or less than the wild type.

The chains behind the UniProt entries cited, without tags or fusion partners. Residues count along the entry.
UniProt Q9H1A3, residues 19-318: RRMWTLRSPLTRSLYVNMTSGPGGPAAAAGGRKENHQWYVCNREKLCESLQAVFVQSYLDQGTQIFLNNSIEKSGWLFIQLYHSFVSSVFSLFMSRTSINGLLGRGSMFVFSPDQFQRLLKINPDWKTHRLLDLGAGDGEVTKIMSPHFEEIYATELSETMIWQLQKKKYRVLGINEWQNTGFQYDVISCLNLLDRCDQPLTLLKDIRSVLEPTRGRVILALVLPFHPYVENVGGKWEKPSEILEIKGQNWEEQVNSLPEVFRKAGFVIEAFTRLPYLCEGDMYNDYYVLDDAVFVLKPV

B1: Calnexin precursor (CANX) (protein, UniProt P27824 21-592)
chain: HDGHDDDVIDIEDDLDDVIEEVEDSKPDTTAPPSSPKVTYKAPVPTGEVYFADSFDRGTLSGWILSKAKKDDTDDEIAKYDGKWEVEEMKESKLPGDKGLVLMSRAKHHAISAKLNKPFLFDTKPLIVQYEVNFQNGIECGGAYVKLLSKTPELNLDQFHDKTPYTIMFGPDKCGEDYKLHFIFRHKNPKTGIYEEKHAKRPDADLKTYFTDKKTHLYTLILNPDNSFEILVDQSVVNSGNLLNDMTPPVNPSREIEDPEDRKPEDWDERPKIPDPEAVKPDDWDEDAPAKIPDEEATKPEGWLDDEPEYVPDPDAEKPEDWDEDMDGEWEAPQIANPRCESAPGCGVWQRPVIDNPNYKGKWKPPMIDNPSYQGIWKPRKIPNPDFFEDLEPFRMTPFSAIGLELWSMTSDIFFDNFIICADRRIVDDWANDGWGLKKAADGAAEPGVVGQMIEAAEERPWLWVVYILTVALPVFLVILFCCSGKKQTSGMEYKKTDAPQPDVKEEEEEKEEEKDKGDEEEEGEEKLEEKQKSDAEEDGGTVSQEEEDRKPKAEEDEILNRSPRNRKPRRE

Assays:
[1] = molecular target: T1, Calnexin precursor (CANX) (human (endogenous in HeLa)) (UniProt P27824); assay: co-IP; reverse IP: 10 ug anti-Calnexin antibody, 4 mg whole cell extract; immunoblot with anti-GFP; beads alone as control
T1 sequence: B1 chain

GFP-METTL9 (human) = GFP-METTL9 (human) (UniProt Q9H1A3); assay: co-IP; GFP-METTL9 or GFP precipitated with GFP trap beads from whole cell extract; immunoblot with anti-Calnexin

Molecule	binding [1]	binding (GFP-METTL9 (human))
GFP-METTL9 (from UniProt Q9H1A3 19-318)	binds	–
B1	–	binds
